Assay results: the odorant receptor screen of Mainland et al. (2015)
Several values for one entry are separate records, joined by “and”; a condition that tells them apart may be missing. Equal values may be shown once. Some of the results follow. Each value is one well over the wells without odorant, computed here; the data are noisy.

Key:
Test in all cases: odorant receptor activation (CRE luciferase / Renilla) (fold of no-odor wells); higher = more activation
Conditions in all cases: 100 µM
[1] = tested on: OR4K13 clone 1266
[2] = tested on: OR4K14 clone 1276
[3] = tested on: OR4K15 N65S/E88V/S93A/A231E/L280P/I286M clone 1566
[4] = tested on: OR4K17 clone 1319
[5] = tested on: OR4K17 clone 1420
[6] = tested on: OR4K2 clone 1258
[7] = tested on: OR4K3 clone 1259
[8] = tested on: OR4K5 clone 1261
[9] = tested on: OR4L1 R52S clone 1265
[10] = tested on: OR4M1 clone 1559

SMILES: CCCCOC(C)=O [butyl acetate]
- odorant receptor activation [1]: 0.769
- odorant receptor activation [2]: 0.821
- odorant receptor activation [3]: 0.763
- odorant receptor activation [4]: 0.879
- odorant receptor activation [5]: 0.217
- odorant receptor activation [6]: 0.73
- odorant receptor activation [7]: 0.675
- odorant receptor activation [8]: 0.924
- odorant receptor activation [9]: 0.867
- odorant receptor activation [10]: 1.13

SMILES: CS [methanethiol]
- odorant receptor activation [1]: 0.862
- odorant receptor activation [2]: 0.995
- odorant receptor activation [3]: 0.875
- odorant receptor activation [4]: 0.816
- odorant receptor activation [5]: 0.897
- odorant receptor activation [6]: 0.715
- odorant receptor activation [7]: 0.944
- odorant receptor activation [8]: 0.973
- odorant receptor activation [9]: 0.933
- odorant receptor activation [10]: 1.04

SMILES: CCOc1cc(C=O)ccc1O [ethyl vanillin]
- odorant receptor activation [1]: 1.35 and 1.16
- odorant receptor activation [2]: 0.823 and 1.04
- odorant receptor activation [3]: 1.02
- odorant receptor activation [4]: 1.28 and 1.16
- odorant receptor activation [5]: 1.05 and 1.3
- odorant receptor activation [6]: 0.989 and 0.988
- odorant receptor activation [7]: 1.62 and 1.08
- odorant receptor activation [8]: 1.52 and 0.867
- odorant receptor activation [10]: 0.888

SMILES: CCC(C)=O [2-butanone]
- odorant receptor activation [1]: 1.11
- odorant receptor activation [2]: 0.801
- odorant receptor activation [3]: 1.03
- odorant receptor activation [4]: 0.903
- odorant receptor activation [5]: 0.64
- odorant receptor activation [6]: 1.49
- odorant receptor activation [7]: 0.904
- odorant receptor activation [8]: 1.78
- odorant receptor activation [9]: 1.53
- odorant receptor activation [10]: 0.972
